In patent publication US12534748B2, “Engineered beta-subunit of tryptophan synthase for production of non-canonical amino acids” (California Institute of Technology, priority 2015, dated 2026):
At least one read-out could not be matched to a standard name with certainty.

Experiment: Kinetic properties (kcat and KM of indole) of TrpB homologs and their variants
Assay type: biochemical

Molecule	kcat/KM indole (Table 4, Af, 60° C.) [M⁻¹ s⁻¹]	kcat/KM indole (Table 5, Tm, 75° C.) [M⁻¹ s⁻¹]
AfTrpB^WT: wild-type TrpB from Archaeoglobus fulgidus, SEQ ID NO:4 (protein, listed as Archaeoglobus fulgidus) MRCWLENLSGGRKMKFGEFGGRFVPEVLIPPLEELEKAYDRFKDDEEFKARLEYYLKSYAGRPTPLYFAENLSRELGVKIYLKREDLLHGGAHKINNTIGQALLAKFMGKKRVIAETGAGQHGVATAMAAALLGLEAEIYMGAEDYERQKMNVFRMELLGAKVTAVESGSRTLKDAINEALRDWVESFEHTHYLIGSVVGPHPFPTIVRDFQAVIGKEARRQIIEAEGGMPDAIIACVGGGSNAMGIFHPFLNDDVRLIGVEAGGEGIESGRHSASLTAGSKGVLHGMLSYFLQDEEGMMLDTHSVSAGLDYPGVGPEHAYLKETGRCEYVTVNDEEALRAFKTLSKLEGIIPALESAHAIAYAMKMAEEMQRDDVLVVNLSGRGDKDMDIVRRRLALEHHHHHH	6e+06	
TmTrpB^WT: wild-type TrpB from Thermotoga maritima, SEQ ID NO:6 (protein, listed as Thermotoga maritima) MKGYFGPYGGQYVPEILMPALEELEAAYEEIMKDESFWKEFNDLLRDYAGRPTPLYFARRLSEKYGARIYLKREDLLHTGAHKINNAIGQVLLAKKMGKTRIIAETGAGQHGVATATAAALFGMECVIYMGEEDTIRQKPNVERMKLLGAKVVPVKSGSRTLKDAINEALRDWITNLQTTYYVIGSVVGPHPYPIIVRNFQKVIGEETKKQILEKEGRLPDYIVACVGGGSNAAGIFYPFIDSGVKLIGVEAGGEGLETGKHAASLLKGKIGYLHGSKTFVLQDDWGQVQVTHSVSAGLDYSGVGPEHAYWRETGKVLYDAVTDEEALDAFIELSRLEGIIPALESSHALAYLKKINIKGKVVVVNLSGRGDKDLESVLNHPYVRERIRLEHHHHHH		3.9e+07
